Test system: cyprids of A. amphitrite
Assay type: in vivo
Conditions: 72 h
Experimental: Adult A. amphitrite (Cirripedia, Balanidae) were collected from boat docks at Port Mikrolimano and Floisvos, Athens, Greece. Animals were cleaned of epibionts with a small hard brush and meticulously identified as individuals of the species. Adult barnacles were kept in separate aerated glass tanks (20 L) containing 200-μm filtered natural seawater at 27 °C and a 12:12 L:D photoperiod. Tanks were fed with 24-h hatched Artemia sp. (Branchiopoda) nauplii and Tetraselmis suecica (Chlorodendrophyceae) and Skeletonema costatum (Bacillariophyceae) algae each day and seawater was changed on alternate days. Upon stress to induce oviposition (exposure to air for 24 h or immersion in fresh water for 5 h), adults were returned to seawater for larval release. Hatched nauplii were attracted to a point light source, collected and placed into a beaker containing 2 or 3 L of 0.7 μm GF/F (GE Healthcare, Little Chalfont, UK )-filtered natural seawater at a density of approximately 1–2 nauplii/mL with gentle aeration. Nauplii were maintained at 27 °C at a 12:12 L:D photoperiod on a diet of C. gracilis (Bacillariophyceae) provided at a density of 2 × 10^5 cells/mL. Cultured in these conditions, nauplii metamorphosed to cyprids in 5 days. Aliquots of these cyprids were collected with a wide-mouthed Pasteur pipette and aged at 4 °C for 1 day prior to use in settlement assays. Only batches of cyprids that were active and had numerous oil cells, representing energy reserves, were used in settlement assays.
Assays were conducted by adding 10 cyprids into individual wells of a 24-well polystyrene sterile microplate (Orange Scientific, Braine l’Alleud, Belgium) with 2 mL of artificial sea water (ASW) (25‰) and various concentrations of the chemical compounds as listed in Table 1. These experiments were repeated at least three times with four replicates for each concentration of any given compound (n = 120 cyprids/compound). Stock solutions for all compounds were prepared in methanol (Scharlab, Barcelona, Spain) and serial dilutions were prepared in 0.7 μm (GF/F, GE Healthcare, Little Chalfont, UK), filtered sea water to have a final concentration of 2.5% methanol in each assay solution. Plates were covered and sealed with Parafilm® to avoid evaporation and incubated at 25 °C away from any light source and examined after 24, 48 and 72 h. Each animal was inspected under a stereomicroscope and its condition was recorded. […] Both permanently attached and metamorphosed individuals were counted as settled or juveniles. The remainder were counted as ‘no metamorphosis’, i.e. animals that responded to light touch and were still cyprids at the end of the experiments with no overt signs of metamorphosis.
For EC50 or IC50 (the concentration that results in 50% stimulation or inhibition relative to the control) calculations in GraphPad Prism v.6, all data were fitted to the curve according to the following models for normalized response: Y = 100/(1 + 10^((X − LogIC50))) or Y = 100/(1 + 10^((LogEC50 − X))) depending on the trend of the curve.

Row | SMILES | Settlement/No Metamorphosis Ratio IC50/EC50 | Therapeutic Ratio (TR = LC50/IC50)
1 | C=C(C1CCC(C)(O)C(Br)C1)C1C(Br)C2C(CCC2(C)O)C1(C)C (centres unmarked) [Compound 19, neorogioldiol] | 0.01 | 758.07
2 | CC(C)C1=C2CCC(C)C2CC(C)(C)C1O (centres unmarked) [Compound 8, 4-hydroxy-5-brasilene] | 1.28 | 0.85
3 | CC1(C(Br)CO)CC=C2C(C1)C(O)CC1C2(C)CCC(Br)C1(C)C (centres unmarked) [Compound 14, 3,15-dibromo-7,16-dihydroxy-isopimar-9(11)-ene] | 0.00 | 126.43
4 | CC(=O)OCC(Br)C1(C)CC=C2C(C1)C(O)CC1C2(C)CC(OC(C)=O)C2CC21C (centres unmarked) [Compound 15, deoxyparguerol 16-acetate] | 0.07 | 6.45
5 | Cc1cc(O)c(C2(C)CCC3CC32C)cc1Br (centres unmarked) [Compound 6, laurinterol] | 0.08 | 1.82
6 | C#CC=CCC1OC(C(Br)CC)CC(OC(C)=O)C(Cl)CC1Cl (centres unmarked) [Compound 22, laurencienyne] | 0.00 | 1297.0
7 | CC(=CC=CC1(C)CCC(Br)C(C)(C)O1)C1CCC(C)(O)C(Br)C1 (centres unmarked) [Compound 20, O^11,15-cyclo-14-bromo-14,15-dihydrorogiol-3,11-diol] | 0.33 | 41.66
8 | CC(C)[C@H]1CC(C)(C)[C@@H](O)C2=C1CC[C@H]2C [Compound 7, epibrasilenol] | 0.19 | 2.43
9 | C=C1CC[C@@](C)(c2ccc(C)cc2OC(C)=O)[C@H]1C [Compound 2, debromoallolaurinterol acetate] | 0.54 | 9.67
10 | CCC=CCC(Br)C(CC1OC(C=C=CBr)CC1OC(C)=O)OC(C)=O (centres unmarked) [Compound 23, graciosallene] | 0.86 | –
11 | C=CC(C)(O)CCC1C(=C)CCC(Br)C1(C)CCC(O)C(C)(C)Cl (centres unmarked) [Compound 16] | 0.04 | –
12 | C=C1CC[C@@](C)(c2ccc(C)cc2)[C@H]1C [Compound 1, laurene] | – | 1.82
13 | Cc1ccc(C2(C)CCC(=CBr)C2C)c(O)c1 (centres unmarked) [Compound 4, iso-laurenisol] | 0.06 | 8.24
14 | C#CC=CCC1OC(C=CC)CC=CCC1Cl (centres unmarked) [Compound 21, (3Ε)-laurenyne] | 575.00 | 32.40
15 | C=CC(C)(O)CC[C@@H]1C(=C)CC[C@@H](Br)[C@@]1(C)CCC1OC1(C)C (some centres unmarked) [Compound 18] | 0.01 | 64.37
16 | C=CC(C)(O)CC[C@H](Br)[C@@]1(C)CC[C@H](Br)C(C)(C)O1 (some centres unmarked) [Compound 13, obtusenol] | 0.01 | 7.99
17 | CC1=CC[C@@]2(C)C(=C(C)C(=O)[C@@H](O)[C@@H]2C)CC1 [Compound 10, perforenone A] | 0.08 | 6.17
18 | Cc1cc2c(cc1Br)C1(C)CCC(C)(O2)C1C (centres unmarked) [Compound 5, filiformin] | 44.84 | –
19 | C=CC(C)(O)CCC1C(=C)CCC(Br)C1(C)CCC(Br)C(C)(C)O (centres unmarked) [Compound 17] | 0.01 | –
20 | CC1=C2CC[C@@](C)(Cl)[C@@H](Br)C[C@]2(C)[C@@H](C)[C@@H](Br)[C@@H]1O [Compound 9, perforenol] | 0.01 | 98.28
21 | CC(C)[C@@H]1CC=C[C@H]2[C@H]3[C@](C)(CC[C@]12CBr)[C@@H](Br)CC[C@@]3(C)O [Bromosphaerol, reference compound] | 1.49 | 2.99
22 | C=C1CC[C@@](C)(c2cc(Br)c(C)cc2OC(C)=O)[C@H]1C [Compound 3, allolaurinterol acetate] | 0.02 | 134.60
23 | C=C1C[C@H](O)[C@H](Br)C(C)(C)[C@@]12CCC(C)=C(Cl)C2 [Compound 12, elatol] | 0.64 | 1.45
